This assay concerns the target androgen receptor (human (endogenous in KYSE410)) (UniProt P10275). Put plainly: Re-ChIP (sequential chromatin immunoprecipitation); KYSE410 cells crosslinked with 1% formaldehyde, chromatin sonicated; first immunoprecipitated chromatin complexes eluted with 10 mM dithiothreitol at 37 °C for 30 min, diluted 50-fold, then second immunoprecipitation; qPCR of the regulatory region of the UGT2B15 locus. For orientation: Real-time PCR tracks product formation cycle by cycle.

Sequences of proteins named here, by UniProt entry; tags and fusion partners are left off.
UniProt P10275: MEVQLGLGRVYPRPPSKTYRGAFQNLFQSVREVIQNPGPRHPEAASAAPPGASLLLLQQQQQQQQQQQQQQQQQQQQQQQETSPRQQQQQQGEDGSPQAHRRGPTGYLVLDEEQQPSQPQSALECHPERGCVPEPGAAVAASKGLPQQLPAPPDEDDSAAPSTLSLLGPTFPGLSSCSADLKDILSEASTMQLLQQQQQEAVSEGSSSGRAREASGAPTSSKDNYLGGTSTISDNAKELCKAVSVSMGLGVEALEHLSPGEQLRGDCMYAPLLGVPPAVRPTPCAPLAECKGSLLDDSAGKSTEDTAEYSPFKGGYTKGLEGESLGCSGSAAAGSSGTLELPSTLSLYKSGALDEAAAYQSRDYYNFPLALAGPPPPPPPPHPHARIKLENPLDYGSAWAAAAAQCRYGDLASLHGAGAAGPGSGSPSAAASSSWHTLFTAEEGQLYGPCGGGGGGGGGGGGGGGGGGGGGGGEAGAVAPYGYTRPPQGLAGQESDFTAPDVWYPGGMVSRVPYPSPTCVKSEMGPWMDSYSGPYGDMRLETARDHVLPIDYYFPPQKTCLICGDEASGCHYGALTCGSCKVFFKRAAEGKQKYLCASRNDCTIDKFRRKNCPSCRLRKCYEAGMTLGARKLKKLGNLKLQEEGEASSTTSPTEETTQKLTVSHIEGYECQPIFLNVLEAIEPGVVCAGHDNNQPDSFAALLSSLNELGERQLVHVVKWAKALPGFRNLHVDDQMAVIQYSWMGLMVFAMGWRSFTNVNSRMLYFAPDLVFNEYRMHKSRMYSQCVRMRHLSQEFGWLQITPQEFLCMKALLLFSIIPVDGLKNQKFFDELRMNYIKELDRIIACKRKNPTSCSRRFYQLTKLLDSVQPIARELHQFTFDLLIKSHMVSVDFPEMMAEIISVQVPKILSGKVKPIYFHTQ
UniProt P05412: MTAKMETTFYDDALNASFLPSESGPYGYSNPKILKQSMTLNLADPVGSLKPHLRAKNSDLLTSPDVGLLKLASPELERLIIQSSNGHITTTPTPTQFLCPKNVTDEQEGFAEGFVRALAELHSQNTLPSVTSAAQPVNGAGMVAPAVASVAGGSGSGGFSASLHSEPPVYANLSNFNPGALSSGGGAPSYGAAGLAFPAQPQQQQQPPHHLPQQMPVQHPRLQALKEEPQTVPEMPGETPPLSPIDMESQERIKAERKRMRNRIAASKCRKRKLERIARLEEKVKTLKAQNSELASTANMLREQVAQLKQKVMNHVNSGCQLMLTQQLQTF

Results are given in words; binding and its absence hold for the method and conditions named. Some binding calls cover weakened binding; strength is not graded here.

This note sets out measurements from publication PMC10741602.

As for “Jun proto-oncogene (from UniProt P05412 1-331)”, the binding result is “binds”.
